Some of the results follow.

The test deals with T1, OsSMF1 (Oryza sativa, UniProt Q6ZLB0 1-436).
T1 sequence: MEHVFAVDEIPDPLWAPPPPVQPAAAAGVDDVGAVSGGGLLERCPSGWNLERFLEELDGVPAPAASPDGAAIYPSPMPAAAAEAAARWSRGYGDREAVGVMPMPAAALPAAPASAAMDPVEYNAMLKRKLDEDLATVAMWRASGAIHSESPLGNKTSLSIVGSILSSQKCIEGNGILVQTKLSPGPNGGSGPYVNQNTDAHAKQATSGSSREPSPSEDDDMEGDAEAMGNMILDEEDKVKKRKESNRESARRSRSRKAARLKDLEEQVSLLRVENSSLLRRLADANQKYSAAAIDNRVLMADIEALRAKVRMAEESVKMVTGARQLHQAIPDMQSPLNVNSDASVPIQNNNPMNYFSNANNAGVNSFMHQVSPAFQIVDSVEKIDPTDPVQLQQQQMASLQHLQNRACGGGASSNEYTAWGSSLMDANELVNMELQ
As to the kind of experiment: protein-binding microarray (RPBM); PBS, 2% BSA, 51.3 ng/ul salmon testes DNA, 50 uM zinc acetate, 200 nM TF, 25 C, 1 h; high values mean tight binding. The note with it: protein: recombinant; tags: N-terminal polyhistidine and DsRed monomer fusion (pET32a); chain copies: 2; label: CyDye5-dUTP incorporated in the synthesized complementary strand; 3' TTTTT single-stranded linker to array surface; dsDNA, one strand shown. The method in brief: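 Per-feature fluorescence intensity (arbitrary units), read on an Axon 4000B scanner, is the binding signal. Transcription factors carrying an N-terminal polyhistidine tag and DsRed fusion were expressed in E. coli BL21-CodonPlus and purified on Ni–NTA. A custom Agilent array, made double-stranded by primer extension with Cy5-dUTP and blocked with 2% BSA, was incubated with 200 nM protein in PBS, 2% BSA, salmon testes DNA and 50 µM zinc acetate at 25 °C for 1 h and then washed.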
As to “AAGCCTCCTTGGCACTGTCACCACTTAGCCAGCCTTCACCCGGAGTCACCTAGTGCAG”, the binding signal was 4270 fluorescence intensity (a.u.). To “GTAGAAGCCTCTACTATCTACCCTATATATGCATCATTTGCGGAGTCACCTAGTGCAG” belongs 3240 fluorescence intensity (a.u.); to “CACACCTCCACCAACTAGCTGCCACGCTCGCTTTCCCCTGCGGAGTCACCTAGTGCAG”, 3800 fluorescence intensity (a.u.); to “GGGGCACATGTTGGTCTCACGCTGACTTAGCCGTCACGTCCGGAGTCACCTAGTGCAG”, 4670 fluorescence intensity (a.u.).

For the sequence “ATGAGGCCGACGTTGGCGGCCCCGTAGAAGGCCATGGGGCCGGAGTCACCTAGTGCAG”, the binding signal was 3820 fluorescence intensity (a.u.). The value for “CTCTTCAGGGAACAGAATCAAATCAGCATTTTAACTAACTCGGAGTCACCTAGTGCAG” was 40100 fluorescence intensity (a.u.).

In the case of “GACACACCACGCGTGGCAGAGCACACCACGCCCCAATTCGCGGAGTCACCTAGTGCAG”, the binding signal was 4120 fluorescence intensity (a.u.). The value for “TTAGAACTTATAAACACTTCAATGAATGACTGTCACAGTTCGGAGTCACCTAGTGCAG” was 4150 fluorescence intensity (a.u.); that for “TTTCTAATTCGTCATTCACCTCTCTCCTCCATCTCTACCCCGGAGTCACCTAGTGCAG” was 3520 fluorescence intensity (a.u.).

For “CGGCCTATAAGTACTCCATCCCGCCGGCCGGCCGGTGACTCGGAGTCACCTAGTGCAG”, the binding signal is 3370 fluorescence intensity (a.u.).

As for “GTGTGTACTGCCACTGTGTGTGTGTGTGTGTGTGTGTGTGCGGAGTCACCTAGTGCAG”, the binding signal is 4570 fluorescence intensity (a.u.). On to “GAGCTTCGTGTCTGATGACGTATACAAGATTTTGGGGTGACGGAGTCACCTAGTGCAG”, for which the binding signal was 13700 fluorescence intensity (a.u.).

In the case of “GATTGATCGATTAATCTGGGTGTACGTGGAGCACACACCTCGGAGTCACCTAGTGCAG”, the binding signal is 3840 fluorescence intensity (a.u.). To “GAAAGTAGCATGATGTGGCGCTTACGTGGCAGTGATAGACCGGAGTCACCTAGTGCAG” belongs 35000 fluorescence intensity (a.u.); to “CGGCCGTCGCCCGAGAGCGAACGGCCGTCTGCCACGTCATCGGAGTCACCTAGTGCAG”, 35700 fluorescence intensity (a.u.); to “GCCGGATCGAGCCCAACGCCACAGTTTCTTCTCGTCACAACGGAGTCACCTAGTGCAG”, 3210 fluorescence intensity (a.u.). The value for “AAATTAACGATGAGATTAGATAGTGCATGTGGTGACTTAGCGGAGTCACCTAGTGCAG” was 29700 fluorescence intensity (a.u.); that for “TGGTCTGGTCTGCTGACTCGCTGATCGAATACTCTAGCATCGGAGTCACCTAGTGCAG” was 5260 fluorescence intensity (a.u.). The value for “GTGCCACTGCCGCCGCCGTCCTCCTTCCCCACATCAGCGCCGGAGTCACCTAGTGCAG” was 4320 fluorescence intensity (a.u.); that for “GTTGTCCTTTTGTCTTGTGGATGTGGAGAATGCGATGCCACGGAGTCACCTAGTGCAG” was 3320 fluorescence intensity (a.u.). In the case of “TCGGCAGGTTAGATTAGGTCAACAAACCACGTTAGCGAGACGGAGTCACCTAGTGCAG”, the binding signal was 3870 fluorescence intensity (a.u.).

For “GTTGTTCGCGCGCGATCTGTGCACGCGTCACGTACGCGCCCGGAGTCACCTAGTGCAG”, the binding signal was 3550 fluorescence intensity (a.u.). To “CCTGTATCGGGCATGTTCGTGGAGGTTGATGTCATGGCCGCGGAGTCACCTAGTGCAG” belongs 3750 fluorescence intensity (a.u.); to “CGAATCCAAGCCTGTGTCGTGGCTCCGTTTCGGTTGGGTTCGGAGTCACCTAGTGCAG”, 3290 fluorescence intensity (a.u.). The value for “CTGATTGCGATTACGACGTAAACATCAGGACCGTAGGGACCGGAGTCACCTAGTGCAG” was 31200 fluorescence intensity (a.u.); that for “GAAGATGATATTATTATCAGCGTCACCTTTGGTTACCGAACGGAGTCACCTAGTGCAG” was 8810 fluorescence intensity (a.u.); that for “TGTAACGAAGAGTTTGATCACGCGTCTCTCGTCATGTTGTCGGAGTCACCTAGTGCAG” was 3170 fluorescence intensity (a.u.). To “ATCCAGTCTCTCTATTAGCTTGTATCCCTATTCTTATTCTCGGAGTCACCTAGTGCAG” belongs 26000 fluorescence intensity (a.u.); to “AATTTGATTCTTTTAGCCATGCCACTACACGCGGTAGACTCGGAGTCACCTAGTGCAG”, 3340 fluorescence intensity (a.u.); to “AATCTACATCTATGATCTGTCACTGCTTCTCTCTCTCTCCCGGAGTCACCTAGTGCAG”, 4680 fluorescence intensity (a.u.). In the case of “GAAGGTTTGAAGGATGTGGCATTCTGTTGATTTGGATTAACGGAGTCACCTAGTGCAG”, the binding signal was 4450 fluorescence intensity (a.u.). To “CAGGAATTGTGTGTTGTATGCAAGTATGACATCCACAAGTCGGAGTCACCTAGTGCAG” belongs 3210 fluorescence intensity (a.u.). The value for “AAAATGCTGTCAAATGGAGCTATCCGCGTGGATTCTCTGCCGGAGTCACCTAGTGCAG” was 4820 fluorescence intensity (a.u.).

For “GTACTGCGTCTACGTATACTCTCCTCTCTCTCTCTCACACCGGAGTCACCTAGTGCAG”, the binding signal is 4280 fluorescence intensity (a.u.). The value for “CCACTAGCATGGGACAACTTCTCCTACACCCTCCGTGCCACGGAGTCACCTAGTGCAG” was 3160 fluorescence intensity (a.u.). The value for “CTGTGAGTTCGTTGTCTGAGTGAGAGCTGGACGTGCTGCACGGAGTCACCTAGTGCAG” was 33000 fluorescence intensity (a.u.); that for “TTTATCACGTGGCTGTTCCACCAATATCACGTTGTCCTAGCGGAGTCACCTAGTGCAG” was 3930 fluorescence intensity (a.u.); that for “CAGTAATGTGCATTTGGTGAGTTGGTAGCCACCCGATCAACGGAGTCACCTAGTGCAG” was 3530 fluorescence intensity (a.u.). The value for “AAGAAGTATATGGAAAGTGTGTACCATTAATCCAATCTTTCGGAGTCACCTAGTGCAG” was 3650 fluorescence intensity (a.u.); that for “TTTGCCGACCCAGTCTTCAAAGATGCTCATAGGGGTAGGGCGGAGTCACCTAGTGCAG” was 3360 fluorescence intensity (a.u.); that for “GGATCATGCCATTATGCGGTGACAAATGAACAAAACCCTGCGGAGTCACCTAGTGCAG” was 3900 fluorescence intensity (a.u.). On to “CTTTCGACATTCGGTCAAATATCTGACGTGACACTCAAATCGGAGTCACCTAGTGCAG”, for which the binding signal is 5540 fluorescence intensity (a.u.).

(Values after publication PMC7819943, “Rice protein-binding microarrays: a tool to detect cis-acting elements near promoter regions in rice”.)
